Patent publication US10350284B1, “Antigen specific multi epitope-based anti-infective vaccines” (priority 2009, dated 2019)
Some entries share one result that the patent states for a list of compounds. Some compounds share one range, which may span the group rather than tell each member.

Assays:
Format in all cases: cell-based, human
[1] = system: naïve peripheral blood mononuclear cells (PBMC); assay: Proliferation ([3H] Thymidine) of PBMC from naïve donors stimulated with VXL tuberculosis vaccine candidates; details: 11 naïve donors; range over the named peptides
[2] = system: PBMC from patients with active Mtb; assay: Proliferation of PBMC from patients with active Mtb stimulated with VXL peptides; details: 14 TB patients; range over the named peptides
[3] = system: PBMC derived from naïve donors; assay: Cytokine secretion (quantitative ELISA) by PBMC from naïve donors; details: 5 of the 11 naïve donors, FIG. 7B; range over cytokines and peptides
[4] = system: autologous macrophages loaded with VXL VCs; assay: Cytotoxic activity of VXL-induced T cell lines against loaded autologous macrophages (35S Methionine); details: 50:1 E:T ratio, T cell line induced by the peptide, FIG. 11
[5] = system: PBMCs derived from tuberculosis patients; assay: Cytokine secretion (quantitative ELISA) by PBMC from tuberculosis patients; details: 6 tuberculosis patients, FIG. 8B

Row | Sequence | donors with positive (SI≥2) proliferation [1] | patients with positive (SI>2) proliferation [2] | secretion of IL-2, IL-12, TNF-alfa, IFN-gamma [3] | lysis of macrophages loaded with the same VXL peptide [4] | secretion mainly of TNF-alfa and IFN-gamma [5]
1 | MKRGLTVAVAGAAILVAGLSGCSS [VXL203] | 54%-81% | 54-100% | 1.5 to 3.3 ng/mL | 90-100% | –
2 | MLLRKGTVYVLVIRADLVNAMVAHA (listed as Mycobacterium tuberculosis) [VXL212, signal peptide of Uncharacterized protein Rv1334/MT1376 precursor, Tuberculosis] | 54%-81% | 54-100% | 1.5 to 3.3 ng/mL | 90-100% | 1.12 to 1.89 ng/mL
3 | MLVLLVAVLVTAVYAFVHA (listed as Mycobacterium tuberculosis) [VXL211, signal peptide of Uncharacterized protein Rv0476/MT04941 precursor, Tuberculosis] | 54%-81% | 54-100% | 1.5 to 3.3 ng/mL | 90-100% | 1.12 to 1.89 ng/mL
4 | MRFAQPSALSRFSALTRDWFTSTFAAPTAAQA (listed as Mycobacterium tuberculosis) [VXL208, signal peptide of ATP dependent helicase putative, Tuberculosis] | 54%-81% | – | 1.5 to 3.3 ng/mL | 90-100% | –
5 | MTDVSRKIRAWGRRLMIGTAAAVVLPGLVGLAGGAATAGA (listed as Mycobacterium tuberculosis) [VXL201, signal peptide of Antigen 85B, Tuberculosis] | 54%-81% | 54-100% | – | – | –
